Measured values published in PMC6404607.
Construct, isoform or probe ends are uncertain for at least one entry. For some of these results: No signal at the amounts used counts as a negative.

The chains behind the UniProt entries cited, without tags or fusion partners. Residues count along the entry.
UniProt Q8MSV2, 223-590 Y286A/F288A/F291A/V364A/F366A/R368A: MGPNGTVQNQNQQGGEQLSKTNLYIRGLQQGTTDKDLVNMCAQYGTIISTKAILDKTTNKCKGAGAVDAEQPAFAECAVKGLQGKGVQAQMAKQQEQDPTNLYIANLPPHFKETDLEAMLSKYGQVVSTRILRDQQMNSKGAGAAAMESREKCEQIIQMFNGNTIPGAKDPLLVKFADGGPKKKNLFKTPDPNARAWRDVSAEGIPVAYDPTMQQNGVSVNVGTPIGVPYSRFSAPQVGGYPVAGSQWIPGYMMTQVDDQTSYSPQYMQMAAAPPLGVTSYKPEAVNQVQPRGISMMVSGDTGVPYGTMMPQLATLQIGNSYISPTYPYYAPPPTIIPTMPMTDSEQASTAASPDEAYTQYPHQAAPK
UniProt Q8MSV2, 223-590: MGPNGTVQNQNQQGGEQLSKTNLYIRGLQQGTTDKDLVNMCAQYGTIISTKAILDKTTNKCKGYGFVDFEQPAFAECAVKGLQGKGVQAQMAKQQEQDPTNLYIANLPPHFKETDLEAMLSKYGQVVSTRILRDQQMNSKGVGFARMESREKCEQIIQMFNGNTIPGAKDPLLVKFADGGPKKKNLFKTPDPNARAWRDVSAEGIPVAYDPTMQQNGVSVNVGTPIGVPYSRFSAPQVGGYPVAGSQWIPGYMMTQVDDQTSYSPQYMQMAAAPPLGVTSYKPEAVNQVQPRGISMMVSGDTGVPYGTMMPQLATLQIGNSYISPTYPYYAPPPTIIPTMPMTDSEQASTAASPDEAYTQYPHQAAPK

Experiments:
[1] = target: Shep E RRM mutant Y286A,F288A,F291A,V364A,F366A,R368A (UniProt Q8MSV2); assay: EMSA; conditions: 10 ug tRNA competitor, 47 pmol protein, 10 pmol probe; EMSA: 10% glycerol, 20 mM NaCl, 60 mM KCl, 20 mM HEPES pH 7.5, 10 ug tRNA; probe heated 95 C 2 min and ice-cooled; 30 min on ice with protein; 6% GTG gel at 4 C; recombinant protein; protein details: His (N-terminal, pET101); label: 32P-UTP (internal); probe letters rebuilt from the primers and the genome
Shep E (wild type) = Shep E (wild type) (UniProt Q8MSV2); assay: EMSA; conditions: 10 ug tRNA competitor, 47 pmol protein, 10 pmol probe; EMSA: 10% glycerol, 20 mM NaCl, 60 mM KCl, 20 mM HEPES pH 7.5, 10 ug tRNA; probe heated 95 C 2 min and ice-cooled; 30 min on ice with protein; 6% GTG gel at 4 C; recombinant protein; protein details: His (stated N-terminal, pET101); label: 32P-UTP (internal); probe letters rebuilt from the primers and the genome

Sequence: GGGAGACUCCGACGACGAGGAGAUUGCAACCACUUCAGCGGCGGCUGUCAAAAUGAAGCUGAAACUGAACAAAUCUCUGGCUAGUGCGCCCGCUACGCCCACGCAAUCAUCGUCGAAUGUGAGCAGCGGAGCGGCUACCACAUCCAAGAAGCAGACGCGUCGCAAGCGCUCCCAAAAGAAGUACACUAUUUCAGACGAUGACGACGAUGACAUGGACUAGCUACCGUUGGGAGUGAUCUUCAAGCGCGGAUCGUCGGAUGUCGAAGGCAUGGGCAAUUGAUUAUUAAUUAGUUUAAGUUUUACUUUCAAGGACGAUGCUUACCAAAACCCUAGCCUACGGGUUUUUUUAACCAUCUAACCUAUCAUGCUAUCACUUUUAUCUAUACUAAUUUUCUAGUUGUAGGUUCUCGAUUAAGUUUCCUAUUCAAUUAUUUUCGCACACACCAUUUAUUUCUCCC [brm 455 nt ssRNA fragment]
- binding result [1]: no binding
- binding result (Shep E (wild type)): binds

Sequence: GGGAGAGAAGCAAGUAGCAGGCGAGAAAAUGAACCGGAAACCGUAGAACUAGAACAAAAGAAUGGAAAGCAAACACGUAGUGAAGAAGCGAUCUAGAACUAAGUAAGCUGAUUAAGAUGCGCAAGCGAACAAGAAAUCGUGUCCUAGGCCCAAAAAAUGCAAAACAAAAUGGAUGGAUCGAUUACUCGGGAUUACUCAAGUUUUGAGCUUAGUGACGAAUCACUUGCAUGGGCAAUGGGCUGGUGUAGUCUAUAUGGAUUCUAUAGCUAUAUCAAAUACAUGAUGGGUCUUCAAAGAAUUAUCCCAGUUUAUAUUGCUUGUAAUUGCUUAUGGAUUACGCCGCCCAUUUCUGGGAAUAUCCAUUCAAUCCAUAGCAAUCGAUCCAUCCUAUUAUACAUAUAUAUAUUUAUAUAUUAUUAAUUCUCUCUUUUAAGUAGGUUCCGCUCCCCUUUGAAAAC [CG10555 470 nt ssRNA fragment]
- binding result [1]: no binding
- binding result (Shep E (wild type)): binds
